Laboratory results reported in paper PMC9596378, “Discovery and molecular basis of subtype-selective cyclophilin inhibitors” (Nature Chemical Biology, 2022).
Values joined by “and” are separate entries in the source; they are usually repeats but may differ in a detail not shown here. Equal entries are not always repeated.

Test system: HeLa cells
Test: Fluorescence microscopy of Cy5-conjugated compounds
Assay type: cell-based, human
Settings: individual technical replicates
Method: Cells were seeded into 96-well, black, clear-bottom, TC-treated plates, in DMEM supplemented with 10% FBS 24 h prior at a density where wells were ~80% confluent at the time of the experiment. Medium was removed and cells were then stained with 50 µL mixture containing Cy5-labeled compound (6 µM) in Kreb’s ringer solution HEPES buffered pH 7.2 (KRB), for 1 h at 37 °C. Then, 50 µL Hoechst 33342 (8 µM) and Mitotracker Green FM (0.1 µM) in KRB was added directly to wells containing cells and incubated for 15 min at 37 °C. Medium was removed and cells were washed twice with 100 µL KRB. Cells were then kept adherent to the wells in 100 µL KRB for imaging. Fluorescence microscopy was conducted on an Opera Phenix Plus High-Content Screening System, using Alexa 488, Alexa 647, and Hoescht 33342 channels. Images were analyzed using Harmony v.4.9.

| Structure (SMILES) | Mitotracker Green and Cy5 Spots % Overlap (8g) |
| --- | --- |
| C[N+]1=C(C=CC=CC=C2N(CCCCCC(=O)NCCNC(=O)C3CCNC(=O)C=CC(=O)N4CCCC(Cc5ccccc5)(C4)C(=O)NC(Cc4ccc(-c5ccc(CC(C(=O)O)C(=O)O)cc5)cc4)C(=O)NCc4ccccc4CC(=O)N3)c3ccccc3C2(C)C)C(C)(C)c2ccccc21 (stereo not shown) [Compound B52-Cy5] | 40.87% and 40.29% and 39.94% |
| CC(=O)NCCNC(=O)CCCCCN1\C(=C/C=C/C=C/C2=[N+](C)c3ccccc3C2(C)C)C(C)(C)c2ccccc21 [Cy5-enAc, reference compound] | 73.41% and 77.45% and 72.71% |
| C[N+]1=C(C=CC=CC=C2N(CCCCCC(=O)NCCNC(=O)C3CCNC(=O)C=CC(=O)N4CCCC(Cc5ccccc5)(C4)C(=O)NC(Cc4ccc(-c5ccc(C(CC(=O)O)CC(=O)O)cc5)cc4)C(=O)NCc4ccccc4CC(=O)N3)c3ccccc3C2(C)C)C(C)(C)c2ccccc21 (stereo not shown) [*B53-Cy5] | 22.73% and 23.26% and 27.77% |
| C[N+]1=C(C=CC=CC=C2N(CCCCCC(=O)NCCNC(=O)C3CCNC(=O)C=CC(=O)N4CCCC(Cc5ccccc5)(C4)C(=O)NC(Cc4ccc(-c5ccc(C(CC(=O)O)CC(=O)O)cc5)cc4)C(=O)NCc4ccccc4CC(=O)N3)c3ccccc3C2(C)C)C(C)(C)c2ccccc21 (stereo not shown) [Compound B53-Cy5] | 21.44% and 28.05% and 25.24% |
| C[N+]1=C(C=CC=CC=C2N(CCCCCC(=O)NCCNC(=O)C3CCNC(=O)C=CC(=O)N4CCCC(Cc5ccccc5)(C4)C(=O)NC(Cc4ccc(-c5ccc(CC(C(=O)O)C(=O)O)cc5)cc4)C(=O)NCc4ccccc4CC(=O)N3)c3ccccc3C2(C)C)C(C)(C)c2ccccc21 (stereo not shown) [*B52-Cy5] | 17.82% and 18.68% and 22.81% |
| CCOC(=O)C(Cc1ccc(-c2ccc(CC3NC(=O)C4(Cc5ccccc5)CCCN(C4)C(=O)C=CC(=O)NCCC(C(=O)NCCNC(=O)CCCCCN4C(=CC=CC=CC5=[N+](C)c6ccccc6C5(C)C)C(C)(C)c5ccccc54)NC(=O)Cc4ccccc4CNC3=O)cc2)cc1)C(=O)OCC (stereo not shown) [Compound B52-Et-Cy5] | 85.8% and 85.56% and 86.46% |
| CCOC(=O)CC(CC(=O)OCC)c1ccc(-c2ccc(CC3NC(=O)C4(Cc5ccccc5)CCCN(C4)C(=O)C=CC(=O)NCCC(C(=O)NCCNC(=O)CCCCCN4C(=CC=CC=CC5=[N+](C)c6ccccc6C5(C)C)C(C)(C)c5ccccc54)NC(=O)Cc4ccccc4CNC3=O)cc2)cc1 (stereo not shown) [Compound B53-Et-Cy5] | 86.25% and 86.5% and 84.76% |
